Only a part is listed here, and it is no random draw. Inconclusive results are not listed. The source made the active and inactive calls. Calls come from the whole dose curve; as a rule, active = well fitted cell-killing curve with a large enough effect; inconclusive = small, poorly fitted or top-dose-only effect, or effect the other way; inactive = flat fitted curve, though single readings scatter.
Potency is the fitted concentration of half-maximal effect.

This assay is described as follows: Viability Counterscreen for CMV-Luciferase Assay of Inhibitors of ATXN expression. Note: nearly all actives have a fitted effect of over 55% in size. The settings on record: HEK-293 CMV-luciferase cells viability, protease fluorescence, 24 h. The source says:
PI: Daniel Scoles Ph.D. University of Utah School of Medicine, Salt Lake City, Utah MLPCN Grant: NS073009 Spinocerebellar ataxia type 2 (SCA2) is a multisystem neurodegenerative disease caused by a dominantly acting mutation leading to expansion of a polyQ domain in the ataxin-2 protein (ATXN2). SCA2 patients develop progressive ataxia and later lose function in other neuronal systems. Prominent parkinsonian signs develop in some patients. Like many neurodegenerative disorders, no symptomatic or disease-modifying treatments are known. The primary objective of the proposed research is to identify compounds inhibiting ATXN2 expression and to test them for efficacy in SCA2 mouse models. […] Here we describe a 5-7 dose quantitative high thoroughput screen (qHTS) for compounds lowering ATXN2 expression. […]
PROTOCOL TABLE (as described by Inglese J, Shamu CE and Guy RK. 2007) SEQUENCE No. (e.g., 1, 2, 3, etc.); PARAMETER (e.g., Cells, Incubation, Reagent, etc.); VALUE; DESCRIPTION. […] 7; Detection; Fluorescence; Viewlux plate reader (PerkinElmer). […] 10; Detection; Luminescence; ViewLux plate reader (PerkinElmer). […] To assess cell viability; the assay plates were read using the ViewLux high-throughput CCD imager (PerkinElmer), wherein single end-point fluorescence measurement was acquired (excitation 405/10; emission 540/25 nm). […]
Background: The purpose of a counterscreen is to sort out artefacts and off-target activity.
`COc1ccccc1C(=O)NNC(=S)NC(=O)c1ccco1`: the Potency is active: 12.6 µM.
